Data on 38 targets can be found in the supplement of paper PMC10849652.

Amino acid sequences for entries named in this document (tags omitted). A change or cut given only in a name is not applied to a line headed by its entry.
UniProt Q9Y4C2: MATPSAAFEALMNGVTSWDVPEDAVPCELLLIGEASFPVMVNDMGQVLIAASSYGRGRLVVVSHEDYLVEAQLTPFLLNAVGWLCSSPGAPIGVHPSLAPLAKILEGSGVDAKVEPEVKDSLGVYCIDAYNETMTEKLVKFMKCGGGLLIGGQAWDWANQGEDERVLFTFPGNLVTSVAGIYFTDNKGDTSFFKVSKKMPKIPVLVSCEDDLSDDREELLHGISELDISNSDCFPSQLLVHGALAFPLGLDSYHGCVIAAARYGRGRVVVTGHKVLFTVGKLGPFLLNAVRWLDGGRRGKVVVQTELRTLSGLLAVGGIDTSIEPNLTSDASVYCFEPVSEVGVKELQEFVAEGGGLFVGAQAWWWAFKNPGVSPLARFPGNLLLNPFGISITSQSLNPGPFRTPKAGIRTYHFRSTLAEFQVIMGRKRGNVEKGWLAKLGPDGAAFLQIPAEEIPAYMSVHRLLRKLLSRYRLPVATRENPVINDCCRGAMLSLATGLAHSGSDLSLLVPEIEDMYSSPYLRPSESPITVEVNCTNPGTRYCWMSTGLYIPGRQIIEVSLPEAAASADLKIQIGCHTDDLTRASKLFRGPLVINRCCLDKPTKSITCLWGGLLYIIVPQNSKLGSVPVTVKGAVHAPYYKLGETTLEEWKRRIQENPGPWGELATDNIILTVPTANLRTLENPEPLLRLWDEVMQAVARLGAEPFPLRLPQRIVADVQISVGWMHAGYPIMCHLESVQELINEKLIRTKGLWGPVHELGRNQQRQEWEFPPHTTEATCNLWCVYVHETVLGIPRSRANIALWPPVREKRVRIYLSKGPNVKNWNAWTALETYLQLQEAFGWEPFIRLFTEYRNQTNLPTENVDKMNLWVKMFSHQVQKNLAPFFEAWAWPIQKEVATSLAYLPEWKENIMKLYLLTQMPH
UniProt Q5JUR7: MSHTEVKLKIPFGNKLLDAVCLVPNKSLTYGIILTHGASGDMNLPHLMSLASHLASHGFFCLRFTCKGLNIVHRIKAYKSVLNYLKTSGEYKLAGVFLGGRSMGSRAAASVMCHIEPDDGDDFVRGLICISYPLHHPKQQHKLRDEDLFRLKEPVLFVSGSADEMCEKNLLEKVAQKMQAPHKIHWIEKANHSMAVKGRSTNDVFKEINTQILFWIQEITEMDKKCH
UniProt Q7L7X3: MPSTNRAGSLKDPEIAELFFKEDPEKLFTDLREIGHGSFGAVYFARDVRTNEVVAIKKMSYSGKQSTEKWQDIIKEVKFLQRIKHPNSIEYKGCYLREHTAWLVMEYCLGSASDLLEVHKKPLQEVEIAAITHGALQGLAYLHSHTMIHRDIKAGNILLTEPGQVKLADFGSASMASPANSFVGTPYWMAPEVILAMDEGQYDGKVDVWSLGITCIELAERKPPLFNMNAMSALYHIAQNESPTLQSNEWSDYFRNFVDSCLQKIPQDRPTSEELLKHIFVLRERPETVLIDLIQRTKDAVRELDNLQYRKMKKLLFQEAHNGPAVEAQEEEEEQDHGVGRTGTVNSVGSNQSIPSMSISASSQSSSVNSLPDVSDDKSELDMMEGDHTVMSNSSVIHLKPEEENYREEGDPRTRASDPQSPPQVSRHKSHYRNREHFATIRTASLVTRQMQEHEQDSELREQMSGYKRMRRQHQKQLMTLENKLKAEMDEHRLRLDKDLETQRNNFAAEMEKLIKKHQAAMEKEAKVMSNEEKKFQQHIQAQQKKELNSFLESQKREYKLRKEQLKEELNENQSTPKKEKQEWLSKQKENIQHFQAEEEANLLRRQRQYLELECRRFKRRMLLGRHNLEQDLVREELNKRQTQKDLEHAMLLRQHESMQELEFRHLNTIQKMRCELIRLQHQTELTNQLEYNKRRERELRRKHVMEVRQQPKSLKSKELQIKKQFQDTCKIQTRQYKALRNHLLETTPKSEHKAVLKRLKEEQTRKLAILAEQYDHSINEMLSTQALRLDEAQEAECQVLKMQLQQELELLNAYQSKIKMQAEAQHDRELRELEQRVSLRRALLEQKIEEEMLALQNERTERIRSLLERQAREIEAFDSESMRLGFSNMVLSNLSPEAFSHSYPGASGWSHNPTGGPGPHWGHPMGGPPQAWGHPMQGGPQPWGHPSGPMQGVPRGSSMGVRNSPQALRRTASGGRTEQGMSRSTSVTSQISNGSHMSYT
UniProt Q99426: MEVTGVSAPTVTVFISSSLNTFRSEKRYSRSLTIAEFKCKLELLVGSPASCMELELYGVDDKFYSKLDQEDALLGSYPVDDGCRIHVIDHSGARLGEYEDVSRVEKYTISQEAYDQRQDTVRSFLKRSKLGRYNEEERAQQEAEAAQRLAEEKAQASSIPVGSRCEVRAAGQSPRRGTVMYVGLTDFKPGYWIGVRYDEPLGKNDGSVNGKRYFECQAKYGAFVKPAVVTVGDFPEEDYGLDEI
UniProt Q12788: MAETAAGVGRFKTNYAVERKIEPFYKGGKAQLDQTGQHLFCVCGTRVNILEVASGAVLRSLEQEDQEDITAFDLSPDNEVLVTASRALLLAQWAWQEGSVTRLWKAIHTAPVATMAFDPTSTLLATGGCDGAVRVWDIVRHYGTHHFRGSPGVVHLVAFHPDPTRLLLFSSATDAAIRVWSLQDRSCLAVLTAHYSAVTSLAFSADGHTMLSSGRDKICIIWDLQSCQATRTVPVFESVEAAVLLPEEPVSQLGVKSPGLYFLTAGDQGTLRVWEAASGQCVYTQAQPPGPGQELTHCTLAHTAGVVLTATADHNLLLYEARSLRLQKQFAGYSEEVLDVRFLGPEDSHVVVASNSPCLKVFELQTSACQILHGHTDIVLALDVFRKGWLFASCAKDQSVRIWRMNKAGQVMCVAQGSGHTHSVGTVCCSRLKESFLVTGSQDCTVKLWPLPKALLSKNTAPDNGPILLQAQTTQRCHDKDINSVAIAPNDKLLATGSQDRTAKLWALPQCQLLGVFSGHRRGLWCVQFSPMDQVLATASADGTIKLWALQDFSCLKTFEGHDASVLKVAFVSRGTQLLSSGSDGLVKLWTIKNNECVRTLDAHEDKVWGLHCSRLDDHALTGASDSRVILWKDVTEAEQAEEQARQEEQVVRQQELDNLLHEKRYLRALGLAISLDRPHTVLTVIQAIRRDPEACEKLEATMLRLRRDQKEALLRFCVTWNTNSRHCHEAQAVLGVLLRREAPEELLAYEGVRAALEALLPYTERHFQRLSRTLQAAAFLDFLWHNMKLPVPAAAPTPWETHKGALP
UniProt Q15633: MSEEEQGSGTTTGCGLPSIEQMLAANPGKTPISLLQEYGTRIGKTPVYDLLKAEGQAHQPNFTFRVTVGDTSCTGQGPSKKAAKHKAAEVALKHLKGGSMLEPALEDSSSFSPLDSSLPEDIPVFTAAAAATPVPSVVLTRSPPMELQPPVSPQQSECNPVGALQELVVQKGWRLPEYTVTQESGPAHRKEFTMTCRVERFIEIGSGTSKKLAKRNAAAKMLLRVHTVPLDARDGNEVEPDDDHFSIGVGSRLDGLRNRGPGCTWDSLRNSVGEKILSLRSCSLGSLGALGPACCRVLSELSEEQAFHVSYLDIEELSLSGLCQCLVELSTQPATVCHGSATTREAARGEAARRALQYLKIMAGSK
UniProt Q9P2M4: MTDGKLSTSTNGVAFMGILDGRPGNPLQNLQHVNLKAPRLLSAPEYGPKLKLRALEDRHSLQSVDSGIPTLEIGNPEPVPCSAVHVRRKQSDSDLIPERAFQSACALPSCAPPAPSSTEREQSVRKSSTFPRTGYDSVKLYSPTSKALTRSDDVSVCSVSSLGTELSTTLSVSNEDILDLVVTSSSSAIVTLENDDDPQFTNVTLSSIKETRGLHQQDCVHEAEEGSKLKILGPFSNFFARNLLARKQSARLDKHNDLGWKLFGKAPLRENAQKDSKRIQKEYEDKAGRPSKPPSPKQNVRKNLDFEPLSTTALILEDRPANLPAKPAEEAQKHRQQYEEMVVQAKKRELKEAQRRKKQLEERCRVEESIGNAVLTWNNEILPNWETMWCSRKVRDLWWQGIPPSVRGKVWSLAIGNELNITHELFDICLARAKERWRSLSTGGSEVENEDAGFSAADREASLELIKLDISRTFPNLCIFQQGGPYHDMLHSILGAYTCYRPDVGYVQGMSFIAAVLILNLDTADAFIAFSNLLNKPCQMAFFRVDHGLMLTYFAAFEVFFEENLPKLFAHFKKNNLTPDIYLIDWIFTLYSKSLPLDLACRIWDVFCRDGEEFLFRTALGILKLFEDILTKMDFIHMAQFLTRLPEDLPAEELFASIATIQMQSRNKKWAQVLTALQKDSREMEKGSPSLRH
UniProt Q15545, whole entry, looked up: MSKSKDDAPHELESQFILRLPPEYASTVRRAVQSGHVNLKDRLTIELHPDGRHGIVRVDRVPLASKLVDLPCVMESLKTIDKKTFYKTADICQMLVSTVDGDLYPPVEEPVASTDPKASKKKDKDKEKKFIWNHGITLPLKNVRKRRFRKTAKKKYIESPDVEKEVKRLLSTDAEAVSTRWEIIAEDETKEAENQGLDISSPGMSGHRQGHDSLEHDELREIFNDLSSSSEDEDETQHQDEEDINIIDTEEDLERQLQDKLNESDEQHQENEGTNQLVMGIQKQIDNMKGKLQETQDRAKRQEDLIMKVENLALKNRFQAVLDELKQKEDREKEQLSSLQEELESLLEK
UniProt Q9BZK7: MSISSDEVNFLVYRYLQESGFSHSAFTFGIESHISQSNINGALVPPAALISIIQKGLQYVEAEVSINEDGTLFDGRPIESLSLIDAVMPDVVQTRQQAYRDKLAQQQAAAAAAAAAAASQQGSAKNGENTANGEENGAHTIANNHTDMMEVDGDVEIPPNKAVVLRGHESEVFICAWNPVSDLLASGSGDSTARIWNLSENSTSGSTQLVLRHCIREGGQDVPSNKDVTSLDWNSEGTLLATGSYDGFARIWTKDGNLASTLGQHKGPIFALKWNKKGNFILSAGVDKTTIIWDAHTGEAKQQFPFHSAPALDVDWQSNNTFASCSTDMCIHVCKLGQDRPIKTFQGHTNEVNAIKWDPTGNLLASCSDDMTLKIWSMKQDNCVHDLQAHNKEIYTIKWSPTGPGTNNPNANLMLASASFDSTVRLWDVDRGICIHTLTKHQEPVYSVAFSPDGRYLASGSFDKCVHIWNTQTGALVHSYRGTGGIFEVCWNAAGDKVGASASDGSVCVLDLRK
UniProt P15884: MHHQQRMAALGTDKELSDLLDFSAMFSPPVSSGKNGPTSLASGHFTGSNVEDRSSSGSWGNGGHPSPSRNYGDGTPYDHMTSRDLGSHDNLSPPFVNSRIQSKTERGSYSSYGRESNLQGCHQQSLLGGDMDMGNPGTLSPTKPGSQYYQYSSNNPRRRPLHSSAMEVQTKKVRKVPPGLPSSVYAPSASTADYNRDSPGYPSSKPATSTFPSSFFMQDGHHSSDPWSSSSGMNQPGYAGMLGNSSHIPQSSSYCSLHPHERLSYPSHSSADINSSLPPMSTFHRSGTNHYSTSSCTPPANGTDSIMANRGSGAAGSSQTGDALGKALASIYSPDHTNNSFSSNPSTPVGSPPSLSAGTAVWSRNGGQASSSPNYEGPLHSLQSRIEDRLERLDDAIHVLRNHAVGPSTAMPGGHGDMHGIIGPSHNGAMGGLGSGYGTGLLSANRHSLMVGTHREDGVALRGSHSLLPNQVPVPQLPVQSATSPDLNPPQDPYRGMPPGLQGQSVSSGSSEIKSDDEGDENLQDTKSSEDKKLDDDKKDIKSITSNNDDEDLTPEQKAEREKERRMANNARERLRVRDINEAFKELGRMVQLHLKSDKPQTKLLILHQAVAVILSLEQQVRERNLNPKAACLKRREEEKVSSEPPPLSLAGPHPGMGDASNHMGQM
UniProt O75347: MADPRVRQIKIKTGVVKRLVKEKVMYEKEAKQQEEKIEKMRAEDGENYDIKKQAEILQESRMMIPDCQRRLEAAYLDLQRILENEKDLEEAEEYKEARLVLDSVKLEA
UniProt Q9BXI6: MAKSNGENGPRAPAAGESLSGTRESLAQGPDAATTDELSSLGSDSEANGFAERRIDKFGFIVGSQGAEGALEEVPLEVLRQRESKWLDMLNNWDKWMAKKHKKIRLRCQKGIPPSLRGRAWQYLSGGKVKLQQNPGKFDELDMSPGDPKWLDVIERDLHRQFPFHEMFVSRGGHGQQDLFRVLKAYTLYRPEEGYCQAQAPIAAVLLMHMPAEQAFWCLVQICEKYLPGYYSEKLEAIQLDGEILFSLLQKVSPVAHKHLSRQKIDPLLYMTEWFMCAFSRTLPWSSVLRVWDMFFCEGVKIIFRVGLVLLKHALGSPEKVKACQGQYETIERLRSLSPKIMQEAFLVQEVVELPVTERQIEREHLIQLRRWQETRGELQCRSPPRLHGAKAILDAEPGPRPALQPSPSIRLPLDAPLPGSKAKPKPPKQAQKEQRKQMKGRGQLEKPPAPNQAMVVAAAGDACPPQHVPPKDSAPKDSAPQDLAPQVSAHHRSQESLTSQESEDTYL

Some of the results follow.

Compound in the experiment: NC(=O)c1cnc(N[C@@H]2CCCC[C@@H]2N)nc1Nc1cccc(-n2nccn2)c1
Nature of the experiment: log2 fold change, soluble protein after heating vs DMSO (PISA); higher = thermal stabilisation; K562 lysate, 10 uM; active = over 0.2 and 3.5 SD of the protein, either way, in both replicates (recomputed). A digest of the protocol:
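Log-two fold change in thermal stability relative to solvent controls is reported from duplicates. For each sample, crude K562 extract from dounce-homogenised pellets in PBS pH 7.4 with 1 mM MgCl2, at 1 mg/mL protein, was treated with 10 μM compound for 30 min. Aliquots heated for 3 min across 48°C-58°C were pooled, brought to 0.5% NP-40 at 4°C and cleared at 21,000xg for 90 min. The supernatant was quantified by TMTpro 16plex LC-MS/MS with channel sums equalised.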
Turning to TCAF1 (UniProt Q9Y4C2), the log2 fold change is inactive: 0.059.

As for TARS1 (UniProt P26639), the log2 fold change is inactive: -0.006.

As for TEX30 (UniProt Q5JUR7), the log2 fold change is inactive: -0.017.

Take TATDN3 isoform 3 (UniProt Q17R31): the log2 fold change is inactive: -0.038.

With TAGLN2 isoform 2 (UniProt P37802), the log2 fold change was inactive: 0.007.

As for TAF6L (UniProt Q9Y6J9), the log2 fold change was inactive: 0.028.

TATDN1 (UniProt Q6P1N9): the log2 fold change is inactive: 0.022.

Regarding TAOK1 (UniProt Q7L7X3), the log2 fold change was inactive: 0.048.

Regarding TBCB (UniProt Q99426), the log2 fold change was inactive: 0.024.

As for TFCP2 (UniProt Q12800), the log2 fold change is inactive: 0.066.

Consider TBL3 (UniProt Q12788), for which the log2 fold change was inactive: -0.032.

In the case of TARBP2 (UniProt Q15633), the log2 fold change was inactive: -0.029.

As for TFIP11 (UniProt Q9UBB9), the log2 fold change was inactive: 0.

As for TBCE (UniProt Q15813), the log2 fold change was inactive: 0.015.

In the case of TBC1D14 (UniProt Q9P2M4), the log2 fold change was inactive: -0.019.

On to TFG (UniProt Q92734), for which the log2 fold change is inactive: -0.016.

In the case of TCERG1 (UniProt O14776), the log2 fold change was inactive: 0.013.

As to TDRD3 isoform 3 (UniProt Q9H7E2), the log2 fold change is inactive: 0.014.

TFR2 (UniProt Q9UP52): the log2 fold change is inactive: -0.031.

For TBC1D23 (UniProt Q9NUY8), the log2 fold change was inactive: -0.032.

Regarding TEX10 (UniProt Q9NXF1), the log2 fold change was inactive: 0.058.

For the target TBC1D2 (UniProt Q9BYX2), the log2 fold change was inactive: 0.01.

TAF7 (UniProt Q15545): the log2 fold change was inactive: 0.044.

On to TBL1XR1 (UniProt Q9BZK7), for which the log2 fold change is inactive: -0.009.

Regarding TANGO6 (UniProt Q9C0B7), the log2 fold change is inactive: -0.037.

On to TDP1 (UniProt Q9NUW8), for which the log2 fold change is inactive: 0.029.

Take TAOK2 (UniProt Q9UL54): the log2 fold change was inactive: -0.008.

As for TBC1D10B (UniProt Q4KMP7), the log2 fold change is inactive: -0.049.

In the case of TCF12 isoform 3 (UniProt Q99081), the log2 fold change is inactive: -0.032.

TCOF1 isoform 6 (UniProt Q13428): the log2 fold change is inactive: -0.06.

Turning to TCF4 (UniProt P15884), the log2 fold change was inactive: 0.016.

With TBCA (UniProt O75347), the log2 fold change was inactive: 0.016.

Consider TBC1D10A (UniProt Q9BXI6), for which the log2 fold change was inactive: 0.04.

As for TAOK3 (UniProt Q9H2K8), the log2 fold change is inactive: 0.019.

Turning to TFB2M (UniProt Q9H5Q4), the log2 fold change was inactive: 0.039.

For the target TDRD7 (UniProt Q8NHU6), the log2 fold change was inactive: 0.002.

As to TF (UniProt P02787), the log2 fold change is inactive: -0.025.

Turning to TERF2 (UniProt Q15554), the log2 fold change is inactive: 0.048.
